Experimental data taken from the supplement of paper PMC7666118.
Some of the results follow.

The chains behind the UniProt entries cited, without tags or fusion partners. Where a name states a change or a piece, a line headed by the entry shows the natural chain unless it says otherwise.
UniProt Q15004: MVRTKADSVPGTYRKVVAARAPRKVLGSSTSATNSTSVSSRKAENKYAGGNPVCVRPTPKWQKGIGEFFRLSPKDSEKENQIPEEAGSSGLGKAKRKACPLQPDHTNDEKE
UniProt Q8TBB5: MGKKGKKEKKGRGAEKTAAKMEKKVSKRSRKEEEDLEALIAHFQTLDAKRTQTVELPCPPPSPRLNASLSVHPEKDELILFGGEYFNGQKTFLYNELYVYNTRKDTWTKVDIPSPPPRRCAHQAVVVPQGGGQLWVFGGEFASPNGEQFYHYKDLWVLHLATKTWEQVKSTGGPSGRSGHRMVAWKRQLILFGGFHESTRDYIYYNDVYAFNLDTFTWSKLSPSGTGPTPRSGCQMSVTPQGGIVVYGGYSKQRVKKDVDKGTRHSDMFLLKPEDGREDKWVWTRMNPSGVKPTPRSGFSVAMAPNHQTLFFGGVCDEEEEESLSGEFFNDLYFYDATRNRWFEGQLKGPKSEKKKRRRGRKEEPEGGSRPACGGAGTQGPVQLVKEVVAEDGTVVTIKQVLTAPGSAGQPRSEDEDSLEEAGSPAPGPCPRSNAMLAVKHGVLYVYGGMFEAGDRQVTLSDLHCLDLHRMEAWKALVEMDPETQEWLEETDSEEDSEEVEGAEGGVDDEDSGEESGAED
UniProt Q92945: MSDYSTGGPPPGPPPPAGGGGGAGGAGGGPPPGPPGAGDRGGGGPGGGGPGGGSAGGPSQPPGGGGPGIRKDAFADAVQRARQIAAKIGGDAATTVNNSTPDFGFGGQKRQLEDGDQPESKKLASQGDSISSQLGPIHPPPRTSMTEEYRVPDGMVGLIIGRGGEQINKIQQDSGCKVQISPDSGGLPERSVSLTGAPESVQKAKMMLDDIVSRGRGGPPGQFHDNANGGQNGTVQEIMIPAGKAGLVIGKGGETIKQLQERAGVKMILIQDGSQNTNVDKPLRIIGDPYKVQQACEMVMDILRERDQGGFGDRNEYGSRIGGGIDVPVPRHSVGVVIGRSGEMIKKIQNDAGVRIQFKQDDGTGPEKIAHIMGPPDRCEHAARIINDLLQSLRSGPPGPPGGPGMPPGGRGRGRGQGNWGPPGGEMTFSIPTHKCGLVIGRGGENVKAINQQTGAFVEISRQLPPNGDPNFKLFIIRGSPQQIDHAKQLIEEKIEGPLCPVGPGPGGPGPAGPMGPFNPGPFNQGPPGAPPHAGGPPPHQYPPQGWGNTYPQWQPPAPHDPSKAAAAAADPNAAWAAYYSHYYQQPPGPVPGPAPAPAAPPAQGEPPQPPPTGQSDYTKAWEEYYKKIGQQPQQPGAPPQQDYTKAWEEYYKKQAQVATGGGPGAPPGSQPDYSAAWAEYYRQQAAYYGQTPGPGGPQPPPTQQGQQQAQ
UniProt Q27J81, whole entry: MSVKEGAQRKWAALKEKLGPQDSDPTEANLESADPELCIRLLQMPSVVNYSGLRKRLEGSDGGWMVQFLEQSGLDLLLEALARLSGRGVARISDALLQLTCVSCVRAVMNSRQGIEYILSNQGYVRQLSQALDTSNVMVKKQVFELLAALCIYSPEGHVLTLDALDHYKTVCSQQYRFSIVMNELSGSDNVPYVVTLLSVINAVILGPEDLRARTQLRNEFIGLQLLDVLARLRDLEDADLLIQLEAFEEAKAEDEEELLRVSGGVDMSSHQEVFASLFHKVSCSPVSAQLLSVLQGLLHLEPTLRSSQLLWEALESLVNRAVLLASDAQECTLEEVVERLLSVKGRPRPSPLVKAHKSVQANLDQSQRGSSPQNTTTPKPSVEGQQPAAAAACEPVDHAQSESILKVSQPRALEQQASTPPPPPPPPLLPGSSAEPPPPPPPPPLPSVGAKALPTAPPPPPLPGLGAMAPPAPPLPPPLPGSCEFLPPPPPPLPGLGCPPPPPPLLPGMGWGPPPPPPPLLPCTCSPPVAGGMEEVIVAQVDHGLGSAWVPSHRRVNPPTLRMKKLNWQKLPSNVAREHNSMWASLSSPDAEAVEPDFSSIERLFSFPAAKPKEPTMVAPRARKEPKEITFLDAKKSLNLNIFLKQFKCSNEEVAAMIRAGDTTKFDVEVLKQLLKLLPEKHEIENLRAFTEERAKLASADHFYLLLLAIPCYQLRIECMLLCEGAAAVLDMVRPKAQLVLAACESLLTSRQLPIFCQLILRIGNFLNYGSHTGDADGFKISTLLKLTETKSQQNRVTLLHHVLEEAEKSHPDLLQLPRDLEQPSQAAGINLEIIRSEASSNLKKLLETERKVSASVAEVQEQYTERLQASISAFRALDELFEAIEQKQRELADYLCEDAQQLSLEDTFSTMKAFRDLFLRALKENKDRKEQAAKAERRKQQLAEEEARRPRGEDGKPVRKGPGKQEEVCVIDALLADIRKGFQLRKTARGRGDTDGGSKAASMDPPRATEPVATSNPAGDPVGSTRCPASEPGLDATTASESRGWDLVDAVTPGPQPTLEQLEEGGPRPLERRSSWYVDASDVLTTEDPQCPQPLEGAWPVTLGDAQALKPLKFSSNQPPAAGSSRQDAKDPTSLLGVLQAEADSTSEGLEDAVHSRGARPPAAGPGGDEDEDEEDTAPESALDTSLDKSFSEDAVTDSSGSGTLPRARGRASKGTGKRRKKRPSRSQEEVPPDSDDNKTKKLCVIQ
UniProt P51617, whole entry, looked up: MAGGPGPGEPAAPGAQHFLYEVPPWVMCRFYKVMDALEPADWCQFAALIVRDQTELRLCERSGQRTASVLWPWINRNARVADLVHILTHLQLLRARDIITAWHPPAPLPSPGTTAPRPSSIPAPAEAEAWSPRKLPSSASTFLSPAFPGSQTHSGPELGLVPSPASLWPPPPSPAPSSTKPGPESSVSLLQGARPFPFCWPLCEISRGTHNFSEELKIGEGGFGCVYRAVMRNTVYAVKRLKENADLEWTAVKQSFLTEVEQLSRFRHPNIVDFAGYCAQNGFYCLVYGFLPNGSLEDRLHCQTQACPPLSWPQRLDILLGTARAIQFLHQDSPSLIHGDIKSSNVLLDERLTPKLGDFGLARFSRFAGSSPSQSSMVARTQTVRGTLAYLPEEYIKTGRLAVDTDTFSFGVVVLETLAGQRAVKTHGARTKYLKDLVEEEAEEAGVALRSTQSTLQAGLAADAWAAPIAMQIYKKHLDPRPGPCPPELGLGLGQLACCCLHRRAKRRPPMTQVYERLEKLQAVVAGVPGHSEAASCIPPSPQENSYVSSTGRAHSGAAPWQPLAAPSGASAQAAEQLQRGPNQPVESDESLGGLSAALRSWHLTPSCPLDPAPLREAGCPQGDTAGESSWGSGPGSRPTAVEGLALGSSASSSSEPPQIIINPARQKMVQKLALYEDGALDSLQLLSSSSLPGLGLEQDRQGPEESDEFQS
UniProt Q9ULH0: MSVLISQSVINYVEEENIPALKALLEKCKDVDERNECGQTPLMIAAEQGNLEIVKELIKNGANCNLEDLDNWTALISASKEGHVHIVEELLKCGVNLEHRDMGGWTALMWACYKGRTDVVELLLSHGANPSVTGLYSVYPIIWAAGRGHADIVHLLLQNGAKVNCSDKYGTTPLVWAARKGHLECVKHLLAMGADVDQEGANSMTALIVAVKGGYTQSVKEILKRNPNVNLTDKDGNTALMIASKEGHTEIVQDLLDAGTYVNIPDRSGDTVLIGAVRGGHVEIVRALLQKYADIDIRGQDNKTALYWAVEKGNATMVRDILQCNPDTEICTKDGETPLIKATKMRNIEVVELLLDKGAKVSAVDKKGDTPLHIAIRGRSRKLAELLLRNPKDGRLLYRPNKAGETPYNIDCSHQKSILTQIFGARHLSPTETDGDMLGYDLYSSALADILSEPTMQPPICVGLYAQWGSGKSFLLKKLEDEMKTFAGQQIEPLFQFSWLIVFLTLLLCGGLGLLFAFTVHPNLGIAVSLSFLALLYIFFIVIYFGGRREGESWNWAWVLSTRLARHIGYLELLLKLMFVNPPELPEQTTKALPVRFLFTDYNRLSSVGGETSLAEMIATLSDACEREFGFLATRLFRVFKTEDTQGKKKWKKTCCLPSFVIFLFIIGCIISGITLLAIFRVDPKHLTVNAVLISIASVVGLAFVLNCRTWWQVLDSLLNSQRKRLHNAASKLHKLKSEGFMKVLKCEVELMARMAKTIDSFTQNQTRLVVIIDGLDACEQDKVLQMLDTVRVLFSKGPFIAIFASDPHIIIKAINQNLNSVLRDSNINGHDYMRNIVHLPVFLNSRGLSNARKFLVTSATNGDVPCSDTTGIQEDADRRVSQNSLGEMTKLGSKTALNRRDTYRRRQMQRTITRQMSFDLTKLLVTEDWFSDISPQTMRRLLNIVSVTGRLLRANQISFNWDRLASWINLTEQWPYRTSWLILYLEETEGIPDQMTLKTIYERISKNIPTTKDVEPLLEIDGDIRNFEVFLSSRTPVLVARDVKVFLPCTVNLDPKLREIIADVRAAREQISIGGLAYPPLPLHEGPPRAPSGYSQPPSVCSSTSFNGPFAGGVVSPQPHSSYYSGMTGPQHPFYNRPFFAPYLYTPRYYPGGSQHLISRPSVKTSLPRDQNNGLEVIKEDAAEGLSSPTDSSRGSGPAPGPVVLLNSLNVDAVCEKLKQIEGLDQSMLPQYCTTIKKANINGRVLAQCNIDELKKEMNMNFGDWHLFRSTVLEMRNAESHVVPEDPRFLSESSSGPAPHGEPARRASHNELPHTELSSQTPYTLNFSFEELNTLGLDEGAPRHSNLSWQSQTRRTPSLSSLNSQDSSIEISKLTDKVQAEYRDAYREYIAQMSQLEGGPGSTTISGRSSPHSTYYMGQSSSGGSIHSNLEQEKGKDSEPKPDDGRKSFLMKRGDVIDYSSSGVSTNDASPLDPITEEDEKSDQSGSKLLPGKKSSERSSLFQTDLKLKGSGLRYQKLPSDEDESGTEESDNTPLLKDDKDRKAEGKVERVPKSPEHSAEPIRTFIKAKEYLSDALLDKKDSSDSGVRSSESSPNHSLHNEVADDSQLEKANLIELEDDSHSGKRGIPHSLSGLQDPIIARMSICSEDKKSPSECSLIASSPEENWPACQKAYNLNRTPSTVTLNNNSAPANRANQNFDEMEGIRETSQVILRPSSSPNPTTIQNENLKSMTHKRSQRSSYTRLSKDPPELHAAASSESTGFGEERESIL
UniProt Q12905: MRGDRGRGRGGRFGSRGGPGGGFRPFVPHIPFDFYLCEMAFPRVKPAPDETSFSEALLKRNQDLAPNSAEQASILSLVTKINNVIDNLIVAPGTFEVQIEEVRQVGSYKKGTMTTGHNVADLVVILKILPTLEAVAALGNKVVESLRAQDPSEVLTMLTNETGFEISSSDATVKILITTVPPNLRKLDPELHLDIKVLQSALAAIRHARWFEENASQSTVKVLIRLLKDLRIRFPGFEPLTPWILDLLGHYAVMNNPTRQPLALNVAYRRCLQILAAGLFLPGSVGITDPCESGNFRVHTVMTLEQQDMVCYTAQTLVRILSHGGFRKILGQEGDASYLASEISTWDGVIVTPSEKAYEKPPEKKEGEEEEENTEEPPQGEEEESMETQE
UniProt Q9BUE6: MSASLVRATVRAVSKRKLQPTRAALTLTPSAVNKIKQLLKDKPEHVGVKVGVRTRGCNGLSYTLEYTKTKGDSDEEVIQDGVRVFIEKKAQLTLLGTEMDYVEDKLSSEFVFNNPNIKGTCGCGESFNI
UniProt Q96HW7, whole entry: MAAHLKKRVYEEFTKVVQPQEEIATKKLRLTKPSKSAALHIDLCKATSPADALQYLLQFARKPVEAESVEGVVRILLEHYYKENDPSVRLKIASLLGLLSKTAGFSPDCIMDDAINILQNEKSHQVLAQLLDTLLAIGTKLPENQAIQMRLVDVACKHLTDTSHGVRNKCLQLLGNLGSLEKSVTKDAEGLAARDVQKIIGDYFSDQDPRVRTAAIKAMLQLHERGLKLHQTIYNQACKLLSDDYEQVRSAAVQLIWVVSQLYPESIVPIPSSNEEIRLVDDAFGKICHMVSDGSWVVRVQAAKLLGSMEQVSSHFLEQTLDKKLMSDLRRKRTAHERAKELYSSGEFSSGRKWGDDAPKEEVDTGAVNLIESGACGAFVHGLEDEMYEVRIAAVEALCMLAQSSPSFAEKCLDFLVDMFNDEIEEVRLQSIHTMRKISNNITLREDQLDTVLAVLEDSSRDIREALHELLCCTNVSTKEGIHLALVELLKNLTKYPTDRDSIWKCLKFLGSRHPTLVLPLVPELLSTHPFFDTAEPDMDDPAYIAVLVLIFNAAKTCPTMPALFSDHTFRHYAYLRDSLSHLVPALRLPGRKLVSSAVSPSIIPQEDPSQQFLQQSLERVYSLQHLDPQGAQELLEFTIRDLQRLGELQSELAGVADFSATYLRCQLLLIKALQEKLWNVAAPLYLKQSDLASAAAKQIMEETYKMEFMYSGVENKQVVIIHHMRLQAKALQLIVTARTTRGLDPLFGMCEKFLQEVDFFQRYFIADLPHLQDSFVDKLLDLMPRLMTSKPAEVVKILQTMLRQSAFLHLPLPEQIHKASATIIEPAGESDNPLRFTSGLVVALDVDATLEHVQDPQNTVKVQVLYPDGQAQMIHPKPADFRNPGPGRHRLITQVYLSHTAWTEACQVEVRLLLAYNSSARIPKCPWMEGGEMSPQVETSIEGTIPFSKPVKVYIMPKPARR

Each target was assayed with COc1ccc(Cn2ccc3cc(C)c(C(=O)NO)cc32)cc1 (assay: dose-dependent thermal stabilisation call (2D-TPP, DLPTP, 10% FDR) (binary (1 = stabilised)); higher = stabilised by the compound). Settings: system: HL-60 intact cells; concentration range 0.04-10 µM.
Experimental: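 2D thermal proteome profiling in intact HL-60 cells treated with BRD-3811 (0, 0.04, 0.29, 2, 10 uM) for 90 min at 37 C, then heated 3 min at one of 12 temperatures (42-63.9 C). Soluble protein was quantified by TMT10 MS. The value is the DLPTP call of the paper: dose-dependent thermal stabilisation over all temperatures at 10% FDR (F-test of a dose-response against a flat model); one experiment, one call per tested protein.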

Target | dose-dependent thermal stabilisation call
IMPA2 (UniProt O14732) | inactive: 0
KLC4 (UniProt Q9NSK0) | inactive: 0
KIAA0329 (UniProt O15040) | inactive: 0
KIAA1919 (UniProt Q5TF39) | inactive: 0
ITM2B (UniProt Q9Y287) | inactive: 0
IMMT (UniProt Q16891) | inactive: 0
IVNS1ABP (UniProt Q9Y6Y0) | inactive: 0
IPO13 (UniProt O94829) | inactive: 0
KIAA0020 (UniProt Q15397) | inactive: 0
IFI30 (UniProt P13284) | inactive: 0
KIAA0101 (UniProt Q15004) | inactive: 0
KLHDC4 (UniProt Q8TBB5) | inactive: 0
IL17RA (UniProt Q96F46) | inactive: 0
IDH3A (UniProt P50213) | inactive: 0
KHSRP (UniProt Q92945) | inactive: 0
INF2 (UniProt Q27J81) | inactive: 0
ICT1 (UniProt Q14197) | inactive: 0
KIF5B (UniProt P33176) | inactive: 0

Target | dose-dependent thermal stabilisation call
KIAA0664 (UniProt O75153) | inactive: 0
KIAA0090 (UniProt Q8N766) | inactive: 0
JARID1B (UniProt Q9UGL1) | inactive: 0
ITGA2 (UniProt P17301) | inactive: 0
IPO7 (UniProt O95373) | inactive: 0
IRAK1 (UniProt P51617) | inactive: 0
KIDINS220 (UniProt Q9ULH0) | inactive: 0
IDH2 (UniProt P48735) | inactive: 0
IL27RA (UniProt Q6UWB1) | inactive: 0
KIAA0999 (UniProt Q9Y2K2) | inactive: 0
KIF2A (UniProt O00139) | inactive: 0
KIAA1432 (UniProt Q4ADV7) | inactive: 0
ILF2 (UniProt Q12905) | inactive: 0
ISCA1 (UniProt Q9BUE6) | inactive: 0
KIAA0406 (UniProt O43156) | inactive: 0
KIF21A (UniProt Q7Z4S6) | inactive: 0
IFNAR1 (UniProt P17181) | inactive: 0
INTS4 (UniProt Q96HW7) | inactive: 0

In a second layout: results already given

| Target | dose-dependent thermal stabilisation call |
| --- | --- |
| IRAK1 (UniProt P51617) | inactive: 0 |
| KIDINS220 (UniProt Q9ULH0) | inactive: 0 |
